According to PMC6137200:
Results are given in words; binding and its absence hold for the method and conditions named. Binding seen in cells or lysates may run through a third protein. A result given as binding can be weak or reduced; the word gives no strength. Where a sequence is shown, tags or fusion partners need not be part of it.

Target: DOPEY2-GFP (human)
Experiment: co-IP; GFP nanotrap beads (Chromotek) on lysates of HEK293T cells transiently transfected (PEI, 48 h); co-precipitated proteins detected by immunoblot (Licor Odyssey)

B1: ATP9A-HA (protein, UniProt O75110 1-1047)
chain: MTDNIPLQPVRQKKRMDSRPRAGCCEWLRCCGGGEARPRTVWLGHPEKRDQRYPRNVINNQKYNFFTFLPGVLFNQFKYFFNLYFLLLACSQFVPEMRLGALYTYWVPLGFVLAVTVIREAVEEIRCYVRDKEVNSQVYSRLTARGTVKVKSSNIQVGDLIIVEKNQRVPADMIFLRTSEKNGSCFLRTDQLDGETDWKLRLPVACTQRLPTAADLLQIRSYVYAEEPNIDIHNFVGTFTREDSDPPISESLSIENTLWAGTVVASGTVVGVVLYTGRELRSVMNTSNPRSKIGLFDLEVNCLTKILFGALVVVSLVMVALQHFAGRWYLQIIRFLLLFSNIIPISLRVNLDMGKIVYSWVIRRDSKIPGTVVRSSTIPEQLGRISYLLTDKTGTLTQNEMIFKRLHLGTVAYGLDSMDEVQSHIFSIYTQQSQDPPAQKGPTLTTKVRRTMSSRVHEAVKAIALCHNVTPVYESNGVTDQAEAEKQYEDSCRVYQASSPDEVALVQWTESVGLTLVGRDQSSMQLRTPGDQILNFTILQIFPFTYESKRMGIIVRDESTGEITFYMKGADVVMAGIVQYNDWLEEECGNMAREGLRVLVVAKKSLAEEQYQDFEARYVQAKLSVHDRSLKVATVIESLEMEMELLCLTGVEDQLQADVRPTLETLRNAGIKVWMLTGDKLETATCTAKNAHLVTRNQDIHVFRLVTNRGEAHLELNAFRRKHDCALVISGDSLEVCLKYYEYEFMELACQCPAVVCCRCAPTQKAQIVRLLQERTGKLTCAVGDGGNDVSMIQESDCGVGVEGKEGKQASLAADFSITQFKHLGRLLMVHGRNSYKRSAALSQFVIHRSLCISTMQAVFSSVFYFASVPLYQGFLIIGYSTIYTMFPVFSLVLDKDVKSEVAMLYPELYKDLLKGRPLSYKTFLIWVLISIYQGSTIMYGALLLFESEFVHIVAISFTSLILTELLMVALTIQTWHWLMTVAELLSLACYIASLVFLHEFIDVYFIATLSFLWKVSVITLVSCLPLYVLKYLRRRFSPPSYSKLTS
binding: binds
